Measurements published in article PMC10155811.
No constants are given. Whether binding was seen depends on the method and setting. Binding seen in cells or lysates may run through a third protein. Some entries that bind do so weakly or less than the wild type.

The chains behind the UniProt entries cited, without tags or fusion partners.
UniProt O60566: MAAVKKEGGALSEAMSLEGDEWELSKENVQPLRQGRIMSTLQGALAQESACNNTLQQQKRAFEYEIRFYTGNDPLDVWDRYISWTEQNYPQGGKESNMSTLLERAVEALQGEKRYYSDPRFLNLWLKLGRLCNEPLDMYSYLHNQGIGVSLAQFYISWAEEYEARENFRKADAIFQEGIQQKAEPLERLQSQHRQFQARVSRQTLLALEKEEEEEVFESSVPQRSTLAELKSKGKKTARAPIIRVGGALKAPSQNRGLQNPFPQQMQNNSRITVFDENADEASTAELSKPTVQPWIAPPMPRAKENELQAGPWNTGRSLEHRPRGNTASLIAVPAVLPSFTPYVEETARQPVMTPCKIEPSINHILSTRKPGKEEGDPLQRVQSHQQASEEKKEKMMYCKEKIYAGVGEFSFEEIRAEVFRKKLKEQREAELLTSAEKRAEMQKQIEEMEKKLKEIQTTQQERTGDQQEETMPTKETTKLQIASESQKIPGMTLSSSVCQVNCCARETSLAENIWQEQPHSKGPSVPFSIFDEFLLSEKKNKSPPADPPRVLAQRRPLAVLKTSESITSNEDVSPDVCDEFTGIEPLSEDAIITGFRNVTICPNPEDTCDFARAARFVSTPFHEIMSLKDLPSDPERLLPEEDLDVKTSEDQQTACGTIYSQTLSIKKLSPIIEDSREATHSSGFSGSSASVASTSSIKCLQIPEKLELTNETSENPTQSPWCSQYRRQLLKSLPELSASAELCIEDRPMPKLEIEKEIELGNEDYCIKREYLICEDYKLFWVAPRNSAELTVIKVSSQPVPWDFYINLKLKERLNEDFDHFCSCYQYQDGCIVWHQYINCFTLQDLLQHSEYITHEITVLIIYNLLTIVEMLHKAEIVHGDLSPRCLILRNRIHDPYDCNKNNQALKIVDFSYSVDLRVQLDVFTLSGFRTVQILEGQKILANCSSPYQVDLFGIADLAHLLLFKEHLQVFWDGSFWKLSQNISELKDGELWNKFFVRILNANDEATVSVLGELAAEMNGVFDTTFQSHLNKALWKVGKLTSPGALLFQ
UniProt Q15172: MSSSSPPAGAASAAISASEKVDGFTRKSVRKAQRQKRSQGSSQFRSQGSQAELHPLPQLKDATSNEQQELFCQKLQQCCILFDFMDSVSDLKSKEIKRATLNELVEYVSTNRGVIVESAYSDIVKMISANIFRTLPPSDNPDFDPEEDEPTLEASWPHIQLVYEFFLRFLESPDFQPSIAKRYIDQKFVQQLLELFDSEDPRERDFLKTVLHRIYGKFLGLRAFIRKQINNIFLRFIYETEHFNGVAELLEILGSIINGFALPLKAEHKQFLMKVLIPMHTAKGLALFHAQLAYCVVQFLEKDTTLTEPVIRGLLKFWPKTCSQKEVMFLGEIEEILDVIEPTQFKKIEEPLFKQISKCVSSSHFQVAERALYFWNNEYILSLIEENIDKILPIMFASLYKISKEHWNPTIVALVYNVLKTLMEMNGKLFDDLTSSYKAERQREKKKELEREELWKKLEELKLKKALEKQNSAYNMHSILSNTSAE

Target: YFP-BubR1 (human) (UniProt O60566)
Experiment: co-IP; YFP-tagged Bub1 or BubR1 proteins precipitated with GFP-Trap agarose beads from lysates of nocodazole-arrested mitotic HeLa cells, low-salt buffer (Kruse et al., 2013); quantitative western blot for B56α and YFP

binding: binds
Substance: PP2A-B56 (detected as B56α) (from UniProt Q15172 1-486)
